Consider one substance from article PMC4962994.

No constants are given. Whether binding was seen depends on the method and setting. Binding seen in cells or lysates may run through a third protein.

The assay addresses T1, VN::VdPls1 (Verticillium dahliae) (UniProt G2WVY3).
T1 sequence: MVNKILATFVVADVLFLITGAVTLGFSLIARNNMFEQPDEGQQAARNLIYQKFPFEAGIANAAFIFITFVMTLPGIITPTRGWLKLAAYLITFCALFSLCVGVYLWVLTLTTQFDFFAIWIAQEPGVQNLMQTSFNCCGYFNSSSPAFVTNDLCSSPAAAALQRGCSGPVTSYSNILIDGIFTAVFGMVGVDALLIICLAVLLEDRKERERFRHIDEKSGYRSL
Put plainly: split reporter; BiFC with Venus fragments in V. dahliae V592; transformants on MM medium overlaid with cellophane for 2 days to induce hyphopodia; CLSM observation.

With VdMsb2::VC (Verticillium dahliae), the binding result is listed as “no binding”.
